# In the supplement of paper PMC7238544:
# Structures can show the parent of a compound that is named as a salt. ± gives the standard deviation of the averaged measurements. Some of the results follow. The data scatter; read single values as rough.
# Legend:
# hAMSC donor 1 [1] = assay: Hoechst total cell count ratio vs vehicle control; higher = more cells (less toxicity)
# hAMSC donor 2 [2] = assay: as above
# hAMSC donor 1 [3] = assay: transgenic luciferase activity (RLU/mg protein) fold change vs vehicle control (ratio); higher = more transgene expression
# hAMSC donor 2 [4] = assay: as above
# hAMSC donor 1 [5] = assay: transfection efficiency (EGFP+ cells / Hoechst count) fold change vs vehicle control (ratio); hAMSC are human adipose-derived mesenchymal stem cells given an EGFP-luciferase plasmid by lipofection; higher = enhanced transfection
# hAMSC donor 2 [6] = assay: as above
# [7] = priming compound concentration 0.2 µM
# [8] = priming compound concentration 1.7 µM
# [9] = priming compound concentration 13 µM
Structure (SMILES),Hoechst total cell count ratio (hAMSC donor 1 [1]; [7]),Hoechst total cell count ratio (hAMSC donor 1 [1]; [8]),Hoechst total cell count ratio (hAMSC donor 1 [1]; [9]),Hoechst total cell count ratio (hAMSC donor 2 [2]; [7]),Hoechst total cell count ratio (hAMSC donor 2 [2]; [8]),Hoechst total cell count ratio (hAMSC donor 2 [2]; [9]),transgenic luciferase activity (hAMSC donor 1 [3]; [9]),transgenic luciferase activity (hAMSC donor 2 [4]; [7]),transgenic luciferase activity (hAMSC donor 2 [4]; [8]),transgenic luciferase activity (hAMSC donor 2 [4]; [9]),transfection efficiency (hAMSC donor 1 [5]; [7]),transfection efficiency (hAMSC donor 1 [5]; [8]),transfection efficiency (hAMSC donor 1 [5]; [9]),transfection efficiency (hAMSC donor 2 [6]; [7]),transfection efficiency (hAMSC donor 2 [6]; [8]),transfection efficiency (hAMSC donor 2 [6]; [9]),transgenic luciferase activity (hAMSC donor 1 [3]; [8])
CC(C)NCC(O)COc1cccc2[nH]ccc12 (configuration not stated) [Pindolol],1.08 ± 0.11,1.45 ± 0.13,1.41 ± 0.27,1.09 ± 0.12,1.18 ± 0.14,0.999 ± 0.21,0.952 ± 0.6,0.742 ± 0.1,0.826 ± 0.088,0.643 ± 0.18,1.24 ± 0.46,1.43 ± 0.085,0.965 ± 0.098,0.903 ± 0.073,1.09 ± 0.14,1 ± 0.14,
COc1cc(CNC(=O)CCCC/C=C\C(C)C)ccc1O [Zucapsaicin],1.13 ± 0.26,1.17 ± 0.29,0.986 ± 0.076,0.61 ± 0.087,0.887 ± 0.12,1.31 ± 0.49,,0.828 ± 0.067,1.48 ± 0.16,0.233 ± 0.025,0.943 ± 0.12,1.17 ± 0.41,1.17 ± 0.43,1.31 ± 0.39,1.3 ± 0.15,1.08 ± 0.12,2.14 ± 0.79
COc1cc2nc(N3CCN(C(=O)C4COc5ccccc5O4)CC3)nc(N)c2cc1OC (configuration not stated) [Doxazosin],1.15 ± 0.15,1.61 ± 0.072,1.33 ± 0.26,1.09 ± 0.1,1.21 ± 0.037,1.31 ± 0.016,0.801 ± 0.1,0.566 ± 0.35,0.734 ± 0.17,0.761 ± 0.053,1.19 ± 0.26,0.912 ± 0.18,1.08 ± 0.3,0.979 ± 0.14,0.827 ± 0.069,0.749 ± 0.11,
CC(C)(C(=O)O)c1ccc(C(O)CCCN2CCC(C(O)(c3ccccc3)c3ccccc3)CC2)cc1 (configuration not stated) [Fexofenadine hydrochloride],1.53 ± 0.17,1.5 ± 0.2,1.2 ± 0.25,1.09 ± 0.1,1.2 ± 0.11,1.23 ± 0.099,1.08 ± 0.18,0.713 ± 0.14,0.647 ± 0.096,0.664 ± 0.17,0.752 ± 0.067,0.974 ± 0.21,1.06 ± 0.27,1.03 ± 0.092,0.984 ± 0.049,0.945 ± 0.17,
CCOC(=O)c1ncn2c1CN(C)C(=O)c1cc(F)ccc1-2 [Flumazenil],1.46 ± 0.021,1.04 ± 0.11,1.09 ± 0.028,0.901 ± 0.18,0.846 ± 0.039,1.27 ± 0.27,,0.561 ± 0.037,1.23 ± 0.4,0.837 ± 0.17,0.675 ± 0.12,1.49 ± 0.11,0.834 ± 0.19,1.18 ± 0.27,1.36 ± 0.23,1.38 ± 0.12,2.69 ± 1.1
CO[C@H]1/C=C/O[C@@]2(C)Oc3c(C)c(O)c4c(O)c(c(/C=N/N5CCN(C6CCCC6)CC5)c(O)c4c3C2=O)NC(=O)/C(C)=C\C=C\[C@H](C)[C@H](O)[C@@H](C)[C@@H](O)[C@@H](C)[C@H](OC(C)=O)[C@@H]1C [Rifapentine],1.22 ± 0.25,1.55 ± 0.082,1.64 ± 0.072,1.08 ± 0.036,1.11 ± 0.043,1.5 ± 0.17,0.289 ± 0.062,1.07 ± 0.05,0.57 ± 0.1,0.392 ± 0.082,0.903 ± 0.19,0.863 ± 0.038,0.358 ± 0.1,1.14 ± 0.15,0.766 ± 0.083,0.272 ± 0.11,
CC(CN1c2ccccc2Sc2ccccc21)N(C)C (configuration not stated) [Promethazine hydrochloride],1.2 ± 0.18,1.66 ± 0.088,1.06 ± 0.023,1.13 ± 0.11,1.19 ± 0.1,1.42 ± 0.11,0.882 ± 0.22,0.612 ± 0.33,0.64 ± 0.06,0.459 ± 0.03,0.964 ± 0.15,0.849 ± 0.3,1.33 ± 0.43,1.11 ± 0.14,0.895 ± 0.13,0.718 ± 0.045,
